The supplement of paper PMC12889115
The list shows a part of the results. Values are raw readings; no control value is given beside them.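 In the initial screen, polymyxin B was used at a concentration that permeabilizes Salmonella's outer membrane but not its inner membrane. Maximum growth was set by DMSO wells with or without polymyxin B. Since plates varied, data were ranked per plate, and compounds giving the lowest OD600 advanced as hits.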

System: Salmonella enterica serovar Typhimurium SL1344
Assay: bacterial growth OD600 after 18 h with compound and polymyxin B; higher = more bacterial growth (less inhibition)
Conditions: 50 µM, Mueller-Hinton broth

| SMILES | bacterial growth OD600 (polymyxin B 0.75 µg/mL) | bacterial growth OD600 (polymyxin B 1 µg/mL) |
| --- | --- | --- |
| Cc1nc(N2CCCC(C(=O)NCC3CCCCC3)C2)nc2cc(S(C)(=O)=O)ccc12 (stereo unspecified) | 0.934 |  |
| CN(Cc1ccncc1)CC1CCCN(CCc2ccccc2F)C1 (stereo unspecified) |  | 0.533 |
| COc1ccc(CN2Cc3cc(C)ccc3OC(c3ccsc3)C2)c(OC)c1OC (stereo unspecified) | 0.554 |  |
| O=C(N1CCCC(Nc2ccccc2)C1)C1(c2ccccc2)CC1 (stereo unspecified) |  | 0.93 |
| CCOC(=O)C1(Cc2cccc(OC)c2)CCN(Cc2ccc3c(c2)OCCO3)CC1 |  | 0.479 |
| CN(CCC(O)c1ccccc1)c1nncc(-c2cc3ccccc3o2)n1 (stereo unspecified) |  | 0.441 |
| COC(=O)c1cc(CNC(=O)COc2ccccc2)cc(NC(=O)C2(c3ccc(Cl)cc3)CC2)c1 | 0.79 |  |
| Cc1ccsc1C(=O)C1CCCN(Cc2cccn2-c2ccc(Cl)cn2)C1 (stereo unspecified) |  | 0.833 |
| CC(=O)c1ccc(OCC(=O)NC(C)c2cnn(-c3ccccc3C)c2C)cc1 (stereo unspecified) |  | 0.816 |
| CCCNC(=O)NC1CC(=O)N(Cc2ccccc2C(F)(F)F)C1 (stereo unspecified) |  | 0.818 |
| COCCn1cnc2cc(NC(=O)C3CCCCC3)cc(C(=O)N3CCCC3c3nccs3)c21 (stereo unspecified) | 0.812 |  |
| COc1cccc(CN2CCC(n3nccc3NC(=O)c3ccccc3)CC2)c1 |  | 1.08 |
| CC(C)(CO)NC(=O)c1csc2nc(-c3ccc(C(F)(F)F)cc3)cn12 |  | 0.838 |
| CN(Cc1cccnc1)C(=O)C1CCC(=O)N(CCc2ccc(Cl)cc2)C1 (stereo unspecified) |  | 1.1 |
| Cc1cccc(-c2cccc(NC(=O)C3CCCN3Cc3ccc(CO)o3)c2)c1 (stereo unspecified) |  | 0.263 |
| COc1ccc(CCNC(=O)CCC2(Cc3cccc4ccccc34)CCC(=O)N2)cc1OC (stereo unspecified) | 0.846 |  |

| SMILES | bacterial growth OD600 (polymyxin B 0.75 µg/mL) | bacterial growth OD600 (polymyxin B 1 µg/mL) |
| --- | --- | --- |
| COc1ccc(C(C)N(C)Cc2nc(-c3cc(C)c(OC)cc3C)oc2C)cc1 (stereo unspecified) | 0.496 |  |
| O=C(C1CC1)N1CCOc2c(cc(-c3csc4ccccc34)cc2OC2CCOC2)C1 (stereo unspecified) | 0.658 |  |
| O=C(c1cc(COc2ccc3c(c2)OCO3)[nH]n1)N1CCCC(O)C1 (stereo unspecified) |  | 0.979 |
| COc1ccc(N2C(=O)CN(C(=O)c3ccc(C#CC(C)(C)O)cc3)CC23CCCC3)cc1 | 0.734 |  |
| COc1ccccc1Oc1ncccc1CNC(=O)c1sc(C)nc1C | 0.788 |  |
| CCCCN(C)C(=O)c1sc2ncnc(N3CCCCCCC3)c2c1C | 0.008 |  |
| CCC(=O)N[C@@H]1c2ccccc2C2(CCN(C(=O)C3=C(C)OCCO3)CC2)[C@H]1OCc1cccnc1 | 0.843 |  |
| Cc1nccn1-c1ccc(NC(=O)C2CCCN2C(=O)C2(C)CC2)cc1 (stereo unspecified) |  | 1.02 |
| O=C(c1coc(COc2ccc3c(c2)OCO3)n1)N1CC[C@@H]2CCCC[C@H]2C1 |  | 0.007 |
| CC1(C)CC(NC(=O)c2cc(NS(C)(=O)=O)cc3ncn(CCc4ccccc4)c23)CCO1 (stereo unspecified) | 0.865 |  |
| CCOC(=O)C1(Cc2ccc(F)cc2F)CCCN(C(=O)c2ccc(C(C)=O)cc2)C1 (stereo unspecified) |  | 0.949 |
| CSCCCNC(=O)C1CCC(=O)N(CCc2ccc(Cl)cc2)C1 (stereo unspecified) |  | 0.866 |
| O=C(CC1(c2ccccc2Cl)CC(=O)N(C2CCCC2)C1=O)N1CCC(c2ccncc2)CC1 (stereo unspecified) | 0.013 |  |
| Cc1cc(C)n(-c2ccc(NC(=O)C3CCCCN3C(=O)c3cscn3)cc2)n1 (stereo unspecified) |  | 0.938 |
| Cc1ncc2c(c1CNS(C)(=O)=O)CCN(C(=O)c1ccc3c(c1)c1ccccc1n3C)C2 | 0.854 |  |

Shown tab-delimited: part of the list above
SMILES	bacterial growth OD600 (polymyxin B 0.75 µg/mL)	bacterial growth OD600 (polymyxin B 1 µg/mL)
COc1ccc(C(C)N(C)Cc2nc(-c3cc(C)c(OC)cc3C)oc2C)cc1 (stereo unspecified)	0.496	
COc1ccc(N2C(=O)CN(C(=O)c3ccc(C#CC(C)(C)O)cc3)CC23CCCC3)cc1	0.734	
